Experimental data reported in PMC9793604.
No constants are given. Whether binding was seen depends on the method and setting. In cells and extracts the contact can be indirect. Some entries that bind do so weakly or less than the wild type. Where a sequence is shown, tags or fusion partners need not be part of it.

Assays:
CYFP-OsphyB (rice) = target: T1, CYFP-OsphyB (rice) (UniProt Q10MG9); test: split reporter; BiFC: NYFP and CYFP fusions (35S promoter) co-expressed in N. benthamiana pavement cells by agroinfiltration; confocal microscopy 48-72 h after infiltration
T1 sequence: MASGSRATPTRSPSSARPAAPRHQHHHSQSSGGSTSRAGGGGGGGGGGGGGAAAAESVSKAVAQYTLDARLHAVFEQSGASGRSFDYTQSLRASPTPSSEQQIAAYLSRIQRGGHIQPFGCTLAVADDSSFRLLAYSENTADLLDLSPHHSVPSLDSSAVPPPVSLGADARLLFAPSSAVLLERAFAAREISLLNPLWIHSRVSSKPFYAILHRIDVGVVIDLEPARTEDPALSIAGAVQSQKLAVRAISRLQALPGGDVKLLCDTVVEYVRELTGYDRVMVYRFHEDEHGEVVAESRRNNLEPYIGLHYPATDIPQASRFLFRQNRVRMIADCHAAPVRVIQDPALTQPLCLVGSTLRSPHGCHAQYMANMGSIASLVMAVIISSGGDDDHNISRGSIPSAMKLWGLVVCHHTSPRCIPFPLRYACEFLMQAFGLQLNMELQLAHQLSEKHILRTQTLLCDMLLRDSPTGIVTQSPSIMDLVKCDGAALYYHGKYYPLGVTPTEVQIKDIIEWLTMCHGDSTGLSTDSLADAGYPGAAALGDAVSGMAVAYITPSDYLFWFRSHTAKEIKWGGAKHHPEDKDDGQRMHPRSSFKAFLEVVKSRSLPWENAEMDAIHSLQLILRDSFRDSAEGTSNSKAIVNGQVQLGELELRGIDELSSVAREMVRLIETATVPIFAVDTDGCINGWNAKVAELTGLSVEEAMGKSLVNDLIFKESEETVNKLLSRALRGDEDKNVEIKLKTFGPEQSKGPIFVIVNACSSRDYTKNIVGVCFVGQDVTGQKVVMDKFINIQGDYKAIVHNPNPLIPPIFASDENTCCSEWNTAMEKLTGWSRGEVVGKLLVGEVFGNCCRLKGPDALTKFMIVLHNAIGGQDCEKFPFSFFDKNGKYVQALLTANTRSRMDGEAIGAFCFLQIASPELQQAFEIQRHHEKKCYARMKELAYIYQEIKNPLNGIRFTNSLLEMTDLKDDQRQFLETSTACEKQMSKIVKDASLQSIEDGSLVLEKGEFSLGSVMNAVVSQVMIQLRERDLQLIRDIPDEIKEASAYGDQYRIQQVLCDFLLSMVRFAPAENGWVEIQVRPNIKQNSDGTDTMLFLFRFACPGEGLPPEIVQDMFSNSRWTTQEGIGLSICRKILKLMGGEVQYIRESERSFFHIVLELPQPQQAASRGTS

[1] = target: T2, OsphyC-w, BiFC fusions (OsphyC-w-NYFP and CYFP-OsphyC-w) (rice), Q10CQ8; test: as above; details: remark: other sources report otherwise
T2 chain: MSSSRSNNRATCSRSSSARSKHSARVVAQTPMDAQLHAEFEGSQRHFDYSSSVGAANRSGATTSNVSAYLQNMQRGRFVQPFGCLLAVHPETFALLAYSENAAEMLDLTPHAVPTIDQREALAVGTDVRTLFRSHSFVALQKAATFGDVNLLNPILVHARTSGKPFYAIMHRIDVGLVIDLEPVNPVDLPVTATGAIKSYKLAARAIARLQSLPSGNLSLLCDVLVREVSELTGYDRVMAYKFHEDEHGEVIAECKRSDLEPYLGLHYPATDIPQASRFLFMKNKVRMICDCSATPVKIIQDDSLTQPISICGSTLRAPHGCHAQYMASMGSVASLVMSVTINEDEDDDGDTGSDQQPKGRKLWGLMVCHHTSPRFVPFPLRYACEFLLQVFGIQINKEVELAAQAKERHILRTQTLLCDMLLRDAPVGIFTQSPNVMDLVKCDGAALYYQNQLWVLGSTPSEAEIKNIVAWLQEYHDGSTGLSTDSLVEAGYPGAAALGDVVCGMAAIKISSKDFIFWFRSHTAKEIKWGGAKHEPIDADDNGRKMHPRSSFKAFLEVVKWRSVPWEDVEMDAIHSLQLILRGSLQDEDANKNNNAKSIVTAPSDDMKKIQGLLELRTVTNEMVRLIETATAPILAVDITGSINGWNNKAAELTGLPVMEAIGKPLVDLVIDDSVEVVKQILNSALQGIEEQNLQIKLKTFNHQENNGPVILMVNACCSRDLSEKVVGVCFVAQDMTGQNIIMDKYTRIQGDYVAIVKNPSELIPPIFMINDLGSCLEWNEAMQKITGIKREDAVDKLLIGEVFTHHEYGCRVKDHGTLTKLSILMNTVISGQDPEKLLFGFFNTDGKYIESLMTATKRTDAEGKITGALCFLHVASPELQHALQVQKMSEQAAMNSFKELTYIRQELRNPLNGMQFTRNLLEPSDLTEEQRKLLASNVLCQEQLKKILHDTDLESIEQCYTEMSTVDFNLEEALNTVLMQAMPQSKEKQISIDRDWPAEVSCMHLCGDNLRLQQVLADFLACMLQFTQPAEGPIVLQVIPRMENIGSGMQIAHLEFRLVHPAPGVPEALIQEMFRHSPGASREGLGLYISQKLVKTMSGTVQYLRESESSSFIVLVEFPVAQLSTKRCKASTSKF

Binder	binding (CYFP-OsphyB (rice))	binding [1]
OsphyC-w, BiFC fusions (OsphyC-w-NYFP and CYFP-OsphyC-w) (protein, UniProt Q10CQ8 1-1137) MSSSRSNNRATCSRSSSARSKHSARVVAQTPMDAQLHAEFEGSQRHFDYSSSVGAANRSGATTSNVSAYLQNMQRGRFVQPFGCLLAVHPETFALLAYSENAAEMLDLTPHAVPTIDQREALAVGTDVRTLFRSHSFVALQKAATFGDVNLLNPILVHARTSGKPFYAIMHRIDVGLVIDLEPVNPVDLPVTATGAIKSYKLAARAIARLQSLPSGNLSLLCDVLVREVSELTGYDRVMAYKFHEDEHGEVIAECKRSDLEPYLGLHYPATDIPQASRFLFMKNKVRMICDCSATPVKIIQDDSLTQPISICGSTLRAPHGCHAQYMASMGSVASLVMSVTINEDEDDDGDTGSDQQPKGRKLWGLMVCHHTSPRFVPFPLRYACEFLLQVFGIQINKEVELAAQAKERHILRTQTLLCDMLLRDAPVGIFTQSPNVMDLVKCDGAALYYQNQLWVLGSTPSEAEIKNIVAWLQEYHDGSTGLSTDSLVEAGYPGAAALGDVVCGMAAIKISSKDFIFWFRSHTAKEIKWGGAKHEPIDADDNGRKMHPRSSFKAFLEVVKWRSVPWEDVEMDAIHSLQLILRGSLQDEDANKNNNAKSIVTAPSDDMKKIQGLLELRTVTNEMVRLIETATAPILAVDITGSINGWNNKAAELTGLPVMEAIGKPLVDLVIDDSVEVVKQILNSALQGIEEQNLQIKLKTFNHQENNGPVILMVNACCSRDLSEKVVGVCFVAQDMTGQNIIMDKYTRIQGDYVAIVKNPSELIPPIFMINDLGSCLEWNEAMQKITGIKREDAVDKLLIGEVFTHHEYGCRVKDHGTLTKLSILMNTVISGQDPEKLLFGFFNTDGKYIESLMTATKRTDAEGKITGALCFLHVASPELQHALQVQKMSEQAAMNSFKELTYIRQELRNPLNGMQFTRNLLEPSDLTEEQRKLLASNVLCQEQLKKILHDTDLESIEQCYTEMSTVDFNLEEALNTVLMQAMPQSKEKQISIDRDWPAEVSCMHLCGDNLRLQQVLADFLACMLQFTQPAEGPIVLQVIPRMENIGSGMQIAHLEFRLVHPAPGVPEALIQEMFRHSPGASREGLGLYISQKLVKTMSGTVQYLRESESSSFIVLVEFPVAQLSTKRCKASTSKF	binds	
OsphyC-w, BiFC fusions (OsphyC-w-NYFP and CYFP-OsphyC-w), Q10CQ8 1-1137 (protein) MSSSRSNNRATCSRSSSARSKHSARVVAQTPMDAQLHAEFEGSQRHFDYSSSVGAANRSGATTSNVSAYLQNMQRGRFVQPFGCLLAVHPETFALLAYSENAAEMLDLTPHAVPTIDQREALAVGTDVRTLFRSHSFVALQKAATFGDVNLLNPILVHARTSGKPFYAIMHRIDVGLVIDLEPVNPVDLPVTATGAIKSYKLAARAIARLQSLPSGNLSLLCDVLVREVSELTGYDRVMAYKFHEDEHGEVIAECKRSDLEPYLGLHYPATDIPQASRFLFMKNKVRMICDCSATPVKIIQDDSLTQPISICGSTLRAPHGCHAQYMASMGSVASLVMSVTINEDEDDDGDTGSDQQPKGRKLWGLMVCHHTSPRFVPFPLRYACEFLLQVFGIQINKEVELAAQAKERHILRTQTLLCDMLLRDAPVGIFTQSPNVMDLVKCDGAALYYQNQLWVLGSTPSEAEIKNIVAWLQEYHDGSTGLSTDSLVEAGYPGAAALGDVVCGMAAIKISSKDFIFWFRSHTAKEIKWGGAKHEPIDADDNGRKMHPRSSFKAFLEVVKWRSVPWEDVEMDAIHSLQLILRGSLQDEDANKNNNAKSIVTAPSDDMKKIQGLLELRTVTNEMVRLIETATAPILAVDITGSINGWNNKAAELTGLPVMEAIGKPLVDLVIDDSVEVVKQILNSALQGIEEQNLQIKLKTFNHQENNGPVILMVNACCSRDLSEKVVGVCFVAQDMTGQNIIMDKYTRIQGDYVAIVKNPSELIPPIFMINDLGSCLEWNEAMQKITGIKREDAVDKLLIGEVFTHHEYGCRVKDHGTLTKLSILMNTVISGQDPEKLLFGFFNTDGKYIESLMTATKRTDAEGKITGALCFLHVASPELQHALQVQKMSEQAAMNSFKELTYIRQELRNPLNGMQFTRNLLEPSDLTEEQRKLLASNVLCQEQLKKILHDTDLESIEQCYTEMSTVDFNLEEALNTVLMQAMPQSKEKQISIDRDWPAEVSCMHLCGDNLRLQQVLADFLACMLQFTQPAEGPIVLQVIPRMENIGSGMQIAHLEFRLVHPAPGVPEALIQEMFRHSPGASREGLGLYISQKLVKTMSGTVQYLRESESSSFIVLVEFPVAQLSTKRCKASTSKF		binds
